{
  "sequences": {"note": "Protein sequences, listed by entry. Tags and fused reporters are not part of them. Lines headed by an entry give the natural chain unless they say otherwise; changes in a name come on top.", "UniProt Q9BY42": "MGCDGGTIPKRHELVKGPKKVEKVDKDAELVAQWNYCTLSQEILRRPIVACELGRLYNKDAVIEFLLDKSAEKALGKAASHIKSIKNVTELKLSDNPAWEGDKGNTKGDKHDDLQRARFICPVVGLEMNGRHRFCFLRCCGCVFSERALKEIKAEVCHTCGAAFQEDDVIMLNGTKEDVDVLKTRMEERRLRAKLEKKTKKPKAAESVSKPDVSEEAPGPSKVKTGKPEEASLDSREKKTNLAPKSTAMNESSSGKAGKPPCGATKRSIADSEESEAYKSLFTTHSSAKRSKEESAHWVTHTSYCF", "UniProt Q6IQ49": "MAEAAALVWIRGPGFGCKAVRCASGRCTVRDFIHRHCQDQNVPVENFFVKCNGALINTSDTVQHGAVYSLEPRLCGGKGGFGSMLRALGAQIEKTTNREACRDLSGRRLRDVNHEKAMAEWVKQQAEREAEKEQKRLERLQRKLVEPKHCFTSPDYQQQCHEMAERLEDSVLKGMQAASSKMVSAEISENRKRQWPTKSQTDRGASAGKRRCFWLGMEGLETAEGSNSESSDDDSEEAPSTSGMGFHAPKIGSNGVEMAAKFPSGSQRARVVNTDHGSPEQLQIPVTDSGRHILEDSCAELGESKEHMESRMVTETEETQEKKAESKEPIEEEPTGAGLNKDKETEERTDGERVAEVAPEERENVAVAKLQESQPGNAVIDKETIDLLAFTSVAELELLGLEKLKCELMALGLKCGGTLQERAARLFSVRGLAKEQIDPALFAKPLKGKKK", "UniProt Q14790": "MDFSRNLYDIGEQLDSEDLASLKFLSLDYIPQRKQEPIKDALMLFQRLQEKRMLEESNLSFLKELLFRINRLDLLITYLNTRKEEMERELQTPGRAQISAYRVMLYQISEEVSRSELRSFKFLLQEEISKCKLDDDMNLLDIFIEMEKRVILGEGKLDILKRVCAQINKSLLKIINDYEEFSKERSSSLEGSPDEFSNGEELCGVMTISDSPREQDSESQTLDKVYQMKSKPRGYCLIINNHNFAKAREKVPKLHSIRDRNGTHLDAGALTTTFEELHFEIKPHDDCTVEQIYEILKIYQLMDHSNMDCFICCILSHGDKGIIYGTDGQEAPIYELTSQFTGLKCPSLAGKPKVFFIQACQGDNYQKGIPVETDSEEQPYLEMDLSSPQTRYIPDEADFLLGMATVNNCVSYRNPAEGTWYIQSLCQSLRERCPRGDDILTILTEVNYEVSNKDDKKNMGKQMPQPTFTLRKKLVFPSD", "UniProt Q6ZWK4": "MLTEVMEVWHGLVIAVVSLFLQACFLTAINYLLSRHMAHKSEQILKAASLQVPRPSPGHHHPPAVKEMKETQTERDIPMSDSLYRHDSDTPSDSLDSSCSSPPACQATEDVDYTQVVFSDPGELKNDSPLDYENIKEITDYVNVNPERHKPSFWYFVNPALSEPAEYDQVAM", "UniProt Q9Y3I0": "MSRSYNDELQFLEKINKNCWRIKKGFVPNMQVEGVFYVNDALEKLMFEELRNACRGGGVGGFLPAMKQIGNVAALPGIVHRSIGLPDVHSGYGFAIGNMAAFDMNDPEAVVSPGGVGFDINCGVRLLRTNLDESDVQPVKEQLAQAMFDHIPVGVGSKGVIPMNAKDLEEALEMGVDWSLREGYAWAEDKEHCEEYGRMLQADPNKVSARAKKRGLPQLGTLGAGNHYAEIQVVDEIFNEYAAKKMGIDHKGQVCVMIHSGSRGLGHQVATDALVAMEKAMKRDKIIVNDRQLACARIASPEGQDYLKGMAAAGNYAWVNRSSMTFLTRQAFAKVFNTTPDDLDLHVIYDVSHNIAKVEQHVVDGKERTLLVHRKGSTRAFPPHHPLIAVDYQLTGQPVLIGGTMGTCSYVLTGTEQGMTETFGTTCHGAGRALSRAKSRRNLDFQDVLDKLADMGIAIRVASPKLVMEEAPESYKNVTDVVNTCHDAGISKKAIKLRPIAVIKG", "UniProt O14936": "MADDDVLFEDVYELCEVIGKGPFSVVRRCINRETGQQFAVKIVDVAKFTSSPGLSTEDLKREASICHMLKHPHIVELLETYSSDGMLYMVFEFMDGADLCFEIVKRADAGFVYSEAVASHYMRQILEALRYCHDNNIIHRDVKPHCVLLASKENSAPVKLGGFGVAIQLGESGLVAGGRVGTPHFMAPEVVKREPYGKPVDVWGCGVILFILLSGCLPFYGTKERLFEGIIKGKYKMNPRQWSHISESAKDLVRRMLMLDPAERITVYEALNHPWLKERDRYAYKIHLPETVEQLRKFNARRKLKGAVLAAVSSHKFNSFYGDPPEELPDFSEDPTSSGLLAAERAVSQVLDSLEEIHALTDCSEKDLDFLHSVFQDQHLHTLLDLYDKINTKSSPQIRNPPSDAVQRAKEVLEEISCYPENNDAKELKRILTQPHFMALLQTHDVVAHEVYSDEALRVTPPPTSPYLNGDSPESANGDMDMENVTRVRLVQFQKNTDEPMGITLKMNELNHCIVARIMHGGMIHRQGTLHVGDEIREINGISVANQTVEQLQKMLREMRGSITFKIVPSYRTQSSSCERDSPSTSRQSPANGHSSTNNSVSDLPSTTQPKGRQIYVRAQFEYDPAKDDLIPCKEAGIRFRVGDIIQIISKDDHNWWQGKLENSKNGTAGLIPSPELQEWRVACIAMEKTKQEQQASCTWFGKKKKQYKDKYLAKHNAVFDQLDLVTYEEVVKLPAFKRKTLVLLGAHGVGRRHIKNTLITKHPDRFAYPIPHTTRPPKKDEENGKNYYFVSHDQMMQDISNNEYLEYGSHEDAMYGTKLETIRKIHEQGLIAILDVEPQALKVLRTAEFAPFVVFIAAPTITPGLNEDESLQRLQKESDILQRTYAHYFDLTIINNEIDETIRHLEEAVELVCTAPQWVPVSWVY", "UniProt P04632": "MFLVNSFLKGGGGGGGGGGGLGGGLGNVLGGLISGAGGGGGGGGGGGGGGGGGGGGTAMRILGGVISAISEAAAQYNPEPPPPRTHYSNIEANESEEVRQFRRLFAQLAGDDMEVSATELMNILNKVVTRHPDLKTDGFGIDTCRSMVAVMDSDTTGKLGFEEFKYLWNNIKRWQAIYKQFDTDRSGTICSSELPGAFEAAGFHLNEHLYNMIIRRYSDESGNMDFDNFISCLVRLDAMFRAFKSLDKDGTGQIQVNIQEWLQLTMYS", "UniProt Q5TEU4": "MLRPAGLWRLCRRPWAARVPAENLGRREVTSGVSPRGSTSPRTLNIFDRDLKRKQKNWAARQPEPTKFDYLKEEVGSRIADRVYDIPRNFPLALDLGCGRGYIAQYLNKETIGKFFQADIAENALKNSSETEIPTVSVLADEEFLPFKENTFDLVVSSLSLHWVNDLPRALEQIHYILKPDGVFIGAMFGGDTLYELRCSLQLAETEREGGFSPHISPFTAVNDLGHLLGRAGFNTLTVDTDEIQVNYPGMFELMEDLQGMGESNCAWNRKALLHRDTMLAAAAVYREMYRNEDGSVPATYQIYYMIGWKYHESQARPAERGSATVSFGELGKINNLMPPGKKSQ", "UniProt Q07021": "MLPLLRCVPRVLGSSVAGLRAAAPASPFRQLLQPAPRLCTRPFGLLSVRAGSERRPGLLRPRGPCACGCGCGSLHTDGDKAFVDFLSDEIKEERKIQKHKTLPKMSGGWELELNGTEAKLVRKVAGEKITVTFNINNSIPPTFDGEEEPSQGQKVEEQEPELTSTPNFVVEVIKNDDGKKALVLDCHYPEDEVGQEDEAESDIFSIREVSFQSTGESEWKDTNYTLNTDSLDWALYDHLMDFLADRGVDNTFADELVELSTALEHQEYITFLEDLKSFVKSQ", "UniProt O14523": "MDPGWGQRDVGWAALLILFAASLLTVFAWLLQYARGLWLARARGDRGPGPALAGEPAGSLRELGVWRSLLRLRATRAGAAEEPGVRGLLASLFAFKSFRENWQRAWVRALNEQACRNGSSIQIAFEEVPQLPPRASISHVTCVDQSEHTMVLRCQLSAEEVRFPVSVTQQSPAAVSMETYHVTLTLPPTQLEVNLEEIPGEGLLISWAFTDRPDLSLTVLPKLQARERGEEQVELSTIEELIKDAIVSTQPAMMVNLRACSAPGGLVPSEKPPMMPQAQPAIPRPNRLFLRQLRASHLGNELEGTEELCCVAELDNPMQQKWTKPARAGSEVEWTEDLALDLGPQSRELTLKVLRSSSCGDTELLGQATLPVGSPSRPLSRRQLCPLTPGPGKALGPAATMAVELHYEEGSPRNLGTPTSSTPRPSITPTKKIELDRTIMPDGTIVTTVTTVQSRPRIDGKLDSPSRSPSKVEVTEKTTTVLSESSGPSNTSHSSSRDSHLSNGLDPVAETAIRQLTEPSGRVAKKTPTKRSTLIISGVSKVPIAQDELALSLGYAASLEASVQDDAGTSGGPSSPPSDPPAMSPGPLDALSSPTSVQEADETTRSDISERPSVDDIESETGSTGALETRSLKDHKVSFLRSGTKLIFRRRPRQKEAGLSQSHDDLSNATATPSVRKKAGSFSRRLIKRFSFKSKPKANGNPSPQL", "UniProt P17655": "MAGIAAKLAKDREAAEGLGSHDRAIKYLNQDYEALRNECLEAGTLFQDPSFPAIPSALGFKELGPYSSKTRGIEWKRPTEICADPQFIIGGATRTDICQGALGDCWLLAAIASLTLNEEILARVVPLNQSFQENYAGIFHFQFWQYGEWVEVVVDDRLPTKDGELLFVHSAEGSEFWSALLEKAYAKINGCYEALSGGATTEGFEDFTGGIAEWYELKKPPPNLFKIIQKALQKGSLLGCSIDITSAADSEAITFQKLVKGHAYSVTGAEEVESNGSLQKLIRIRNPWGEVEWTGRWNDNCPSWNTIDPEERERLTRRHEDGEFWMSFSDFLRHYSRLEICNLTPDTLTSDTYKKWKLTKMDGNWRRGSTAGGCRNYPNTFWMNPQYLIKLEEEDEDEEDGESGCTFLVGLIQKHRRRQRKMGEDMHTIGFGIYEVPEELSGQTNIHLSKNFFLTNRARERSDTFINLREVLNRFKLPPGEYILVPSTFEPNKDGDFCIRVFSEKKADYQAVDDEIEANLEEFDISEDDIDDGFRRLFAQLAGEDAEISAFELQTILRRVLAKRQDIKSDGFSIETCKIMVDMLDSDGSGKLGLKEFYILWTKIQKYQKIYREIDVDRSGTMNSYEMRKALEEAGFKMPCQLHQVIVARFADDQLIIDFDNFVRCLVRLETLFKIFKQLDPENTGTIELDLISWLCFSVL"},
  "source": "the supplement of paper PMC7666118",
  "note": "This is one part of the list.",
  "data": [
    {"compound": "COc1ccc(Cn2ccc3ccc(C(=O)NO)cc32)cc1", "assay": "dose-dependent thermal stabilisation call (2D-TPP, DLPTP, 10% FDR) (binary (1 = stabilised)); higher = stabilised by the compound", "details": "system: HL-60 intact cells; concentration range 0.04-10 µM", "values": [
      {"target": "C20ORF43 (UniProt Q9BY42)", "dose-dependent thermal stabilisation call": "inactive: 0"},
      {"target": "C1ORF55 (UniProt Q6IQ49)", "dose-dependent thermal stabilisation call": "inactive: 0"},
      {"target": "CASP8 (UniProt Q14790)", "dose-dependent thermal stabilisation call": "inactive: 0"},
      {"target": "C19ORF53 (UniProt Q9UNZ5)", "dose-dependent thermal stabilisation call": "inactive: 0"},
      {"target": "C1ORF186 (UniProt Q6ZWK4)", "dose-dependent thermal stabilisation call": "inactive: 0"},
      {"target": "C22ORF28 (UniProt Q9Y3I0)", "dose-dependent thermal stabilisation call": "active: 1"},
      {"target": "CASK (UniProt O14936)", "dose-dependent thermal stabilisation call": "inactive: 0"},
      {"target": "CAPNS1 (UniProt P04632)", "dose-dependent thermal stabilisation call": "inactive: 0"},
      {"target": "C20ORF7 (UniProt Q5TEU4)", "dose-dependent thermal stabilisation call": "inactive: 0"},
      {"target": "C1QBP (UniProt Q07021)", "dose-dependent thermal stabilisation call": "inactive: 0"},
      {"target": "C2CD2L (UniProt O14523)", "dose-dependent thermal stabilisation call": "inactive: 0"},
      {"target": "CAPN2 (UniProt P17655)", "dose-dependent thermal stabilisation call": "inactive: 0"}
    ]}
  ]
}
